One sequence from article PMC5566547 can be followed below.

The chains behind the UniProt entries cited, without tags or fusion partners. Where a name states a change or a piece, a line headed by the entry shows the natural chain unless it says otherwise. A line that says so, or that is headed by a name, gives the form on record, which may keep a tag or linker.
UniProt Q96FI4, other isoform, or with tags, fused parts or gaps: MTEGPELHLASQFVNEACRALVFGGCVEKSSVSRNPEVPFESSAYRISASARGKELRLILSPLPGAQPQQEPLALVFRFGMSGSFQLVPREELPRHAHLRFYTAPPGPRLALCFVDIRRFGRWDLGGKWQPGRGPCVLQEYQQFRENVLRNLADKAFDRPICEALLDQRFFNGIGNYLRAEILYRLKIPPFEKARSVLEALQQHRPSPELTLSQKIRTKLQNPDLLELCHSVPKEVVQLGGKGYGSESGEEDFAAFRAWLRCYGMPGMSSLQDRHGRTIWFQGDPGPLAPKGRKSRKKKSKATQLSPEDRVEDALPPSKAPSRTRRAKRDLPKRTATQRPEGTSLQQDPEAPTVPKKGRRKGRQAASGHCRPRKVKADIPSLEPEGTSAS

For at least one entry, the source does not settle the construct or the ends of the probe. A weaker result is weaker than the reference pair of the same experiment.

This data set addresses NEIL1 P2T (human) (UniProt Q96FI4). The data set can be described thus: EMSA. To be noted: EMSA: 25 mM Tris-HCl pH 7.5, 100 mM NaCl, 1 mM DTT, 10 nM DNA, 1-200 nM NEIL1 P2T, on ice 30 min; 6% native PAGE, 0.5x TBE, 4 C; recombinant protein; protein details: C-terminal His6; label: 5'-32P top strand; letters put together from the description.

“GCTACCTACCTAGCAGGGGCCAGCTGTCCCACTGCTCGGAA (double strand) [41-mer C:G]”: the binding result is given as “binds more weakly”.
